The record followed here is article PMC9976406, “ANGPTL2 binds MAG to efficiently enhance oligodendrocyte differentiation” (Cell & Bioscience, 2023).

Experiment [1] has as its target human MAG G301D/Y303A (mutant IgG3 domain) (human). The experiment can be described thus: flow cytometry on cells; 293T cells transfected with MAG-GFP plasmids, collected after 48 h, incubated with ANGPTL2-Flag (or other ANGPTL) conditioned medium at 4 °C for 1-2 h, then anti-Flag-APC and PI; binding read in EGFP+ cells.
Experiment [2] deals with human MAG G389D/Y341A (mutant IgG4 domain) (human). The description is as above.

No constants are given. Whether binding was seen depends on the method and setting. Tags and fused reporters may be left off the sequences shown.

B1: ANGPTL2-Flag (angiopoietin-like protein 2) (ligand, UniProt Q9UKU9 23-493, looked up)
chain: QEDGFEGTEEGSPREFIYLNRYKRAGESQDKCTYTFIVPQQRVTGAICVNSKEPEVLLENRVHKQELELLNNELLKQKRQIETLQQLVEVDGGIVSEVKLLRKESRNMNSRVTQLYMQLLHEIIRKRDNALELSQLENRILNQTADMLQLASKYKDLEHKYQHLATLAHNQSEIIAQLEEHCQRVPSARPVPQPPPAAPPRVYQPPTYNRIINQISTNEIQSDQNLKVLPPPLPTMPTLTSLPSSTDKPSGPWRDCLQALEDGHDTSSIYLVKPENTNRLMQVWCDQRHDPGGWTVIQRRLDGSVNFFRNWETYKQGFGNIDGEYWLGLENIYWLTNQGNYKLLVTMEDWSGRKVFAEYASFRLEPESEYYKLRLGRYHGNAGDSFTWHNGKQFTTLDRDHDVYTGNCAHYQKGGWWYNACAHSNLNGVWYRGGHYRSRYQDGVYWAEFRGGSYSLKKVVMMIRPNPNTFH
notes: angiopoietin-like protein 2 (ANGPTL2), secreted into the conditioned medium of 293T cells; The same ANGPTL2-Flag was used on human and murine MAG; also called purified ANGPTL2 protein; source: 293T, transfected with CMV-ANGPTL2-Flag; conditioned medium collected after 48 h, or purified from it with M2 resin
With B1, the binding entry in experiment [1] and in experiment [2] was “no binding” in each case.
